According to PubChem BioAssay AID248 (DTP/NCI, 2004):
The list is a part of this screen's results and no random one: it gathers some chemical classes. Not every dose and run of a compound is shown. T/C: endpoint of the treated group in % of that of the vehicle group. Where survival is the endpoint, this PubChem deposit counts one and a half times the control or more as active, and values a quarter to a half above the control carry no call in these data; other NCI protocols may use other cut-offs. Some entries show no survivor count and are marked so; the dose need not have been tolerated. Schedule codes are those of the source, read here as Q, the interval in days (D) or hours (H), X, the number of doses. Some entries were tested several times; their values stand side by side, smallest first. Signs of the kind (2×) give the number of equal values in this list. Some schedule codes hold Z or #, which are not explained here.

Test system: L1210 leukemia ip in BDF1 mice, survival T/C
Assay: NCI In Vivo Anticancer Drug Screen. Data for tumor model L1210 Leukemia (intraperitoneal) in B6D2F1 (BDF1) mice
Conditions: T/C endpoint: mean survival time, higher T/C = longer survival

Q: Which results are given for CN(CCCl)CCCl?
A: T/C (dose: 3.5 mg/kg/injection, schedule: Q07DX Z (ip), vehicle: saline): 132 % of control [survivor count not shown]; T/C (dose: 3.6 mg/kg/injection, schedule: Q01DX001 (ip), vehicle: saline): 221 % of control [survivor count not shown]; T/C (dose: 4.0 mg/kg/injection, schedule: Q01DX001 (ip), vehicle: saline): 193 % of control [survivor count not shown]; T/C (dose: 4.0 mg/kg/injection, schedule: Q01DX Z (oral), vehicle: saline): 118 % of control [survivor count not shown]; T/C (dose: 4.0 mg/kg/injection, schedule: Q04DX003 (ip), vehicle: clinical formulation): 100 % of control [survivor count not shown]; T/C (dose: 4.0 mg/kg/injection, schedule: Q04DX003 (ip), vehicle: none): 90 [survivor count not shown] and 99 % of control [survivor count not shown]; T/C (dose: 4.0 mg/kg/injection, schedule: Q04DX003 (ip), vehicle: saline): 104 % of control [survivor count not shown]; T/C (dose: 4.0 mg/kg/injection, schedule: Q04DX003 (ip), vehicle: water): 86 [survivor count not shown] (2×), 91 [survivor count not shown], 100 % of control [survivor count not shown]; T/C (dose: 4.5 mg/kg/injection, schedule: Q01DX001 (ip), vehicle: saline): 219 % of control [survivor count not shown]; T/C (dose: 5.2 mg/kg/injection, schedule: Q04DX002 (ip), vehicle: water): 96 % of control [survivor count not shown]; T/C (dose: 6.25 mg/kg/injection, schedule: Q01DX001 (ip), vehicle: saline): 145 % of control [survivor count not shown]; T/C (dose: 7.0 mg/kg/injection, schedule: Q01DX001 (ip), vehicle: saline): 113 % of control [survivor count not shown]; T/C (dose: 7.5 mg/kg/injection, schedule: Q#A X034 (ip), vehicle: saline): 116 % of control [survivor count not shown]; T/C (dose: 8.0 mg/kg/injection, schedule: Q01DX Z (oral), vehicle: saline): 100 % of control [survivor count not shown]; T/C (dose: 12.5 mg/kg/injection, schedule: Q01DX001 (ip), vehicle: saline): 86 % of control [survivor count not shown]; T/C (dose: 14.0 mg/kg/injection, schedule: Q01DX001 (ip), vehicle: saline): 110 % of control [survivor count not shown]; T/C (dose: 31.0 mg/kg/injection, schedule: Q#A X034 (ip), vehicle: saline): 134 % of control [survivor count not shown]; T/C (dose: 124.0 mg/kg/injection, schedule: Q#A X034 (ip), vehicle: saline): 144 % of control [survivor count not shown]; T/C (dose: 500.0 mg/kg/injection, schedule: Q#A X034 (ip), vehicle: saline): 140 % of control [survivor count not shown]; T/C (dose: 3.7 micrograms/kg/injection, schedule: Q01DX017 (ip), vehicle: saline): 104 % of control [survivor count not shown]; T/C (dose: 3.7 micrograms/kg/injection, schedule: Q02DX009 (ip), vehicle: saline): 102 % of control [survivor count not shown]; T/C (dose: 3.8 micrograms/kg/injection, schedule: Q01DX Z (ip), vehicle: saline): 95 % of control [survivor count not shown]; T/C (dose: 7.5 micrograms/kg/injection, schedule: Q01DX Z (ip), vehicle: saline): 98 % of control [survivor count not shown]; T/C (dose: 10.0 micrograms/kg/injection, schedule: Q01DX Z (ip), vehicle: carboxymethylcellulose (CMC)): 110 % of control [survivor count not shown]; T/C (dose: 12.0 micrograms/kg/injection, schedule: Q01DX Z (ip), vehicle: carboxymethylcellulose (CMC)): 112 % of control [survivor count not shown]; T/C (dose: 15.0 micrograms/kg/injection, schedule: Q01DX009 (ip), vehicle: water): 96 [survivor count not shown] and 101 % of control [survivor count not shown]; T/C (dose: 15.0 micrograms/kg/injection, schedule: Q01DX017 (ip), vehicle: saline): 117 % of control [survivor count not shown]; T/C (dose: 15.0 micrograms/kg/injection, schedule: Q01DX Z (ip), vehicle: saline): 118 % of control [survivor count not shown]; T/C (dose: 15.0 micrograms/kg/injection, schedule: Q02DX009 (ip), vehicle: saline): 120 % of control [survivor count not shown]; T/C (dose: 16.0 micrograms/kg/injection, schedule: Q01DX Z (ip), vehicle: carboxymethylcellulose (CMC)): 116 % of control [survivor count not shown]; T/C (dose: 24.0 micrograms/kg/injection, schedule: Q01DX Z (ip), vehicle: carboxymethylcellulose (CMC)): 133 % of control [survivor count not shown]; T/C (dose: 30.0 micrograms/kg/injection, schedule: Q01DX001 (ip), vehicle: saline): 120 % of control [survivor count not shown]; T/C (dose: 30.0 micrograms/kg/injection, schedule: Q01DX009 (ip), vehicle: water): 109 [survivor count not shown] and 111 % of control [survivor count not shown]; T/C (dose: 30.0 micrograms/kg/injection, schedule: Q01DX Z (ip), vehicle: saline): 132 % of control [survivor count not shown]; T/C (dose: 30.0 micrograms/kg/injection, schedule: Q#A X Z (ip), vehicle: saline): 135 % of control [survivor count not shown]; T/C (dose: 60.0 micrograms/kg/injection, schedule: Q01DX001 (ip), vehicle: saline): 125 % of control [survivor count not shown]; T/C (dose: 60.0 micrograms/kg/injection, schedule: Q01DX009 (ip), vehicle: water): 104 [survivor count not shown] and 107 % of control [survivor count not shown]; T/C (dose: 60.0 micrograms/kg/injection, schedule: Q01DX Z (ip), vehicle: saline): 138 % of control [survivor count not shown]; T/C (dose: 60.0 micrograms/kg/injection, schedule: Q#A X Z (ip), vehicle: saline): 149 % of control [survivor count not shown]; T/C (dose: 62.0 micrograms/kg/injection, schedule: Q01DX017 (ip), vehicle: saline): 147 % of control [survivor count not shown]; T/C (dose: 62.0 micrograms/kg/injection, schedule: Q02DX009 (ip), vehicle: saline): 133 % of control [survivor count not shown]; T/C (dose: 95.0 micrograms/kg/injection, schedule: Q01DX Z (ip), vehicle: carboxymethylcellulose (CMC)): 135 [survivor count not shown] and 165 % of control [survivor count not shown]; T/C (dose: 110.0 micrograms/kg/injection, schedule: Q01DX001 (ip), vehicle: saline): 130 % of control [survivor count not shown]
